Source: the supplement of paper PMC8728848
The list shows a part of the results.

Assays:
Assay in all cases: glycan array binding signal (z-score within array); higher = stronger binding
Conditions in all cases: glycan notation: IUPAC condensed, linker removed
[1] = target: Fuc(a1-2)[GalNAc(a1-3)]Gal(b1-4)Glc
How it was run: (§1)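 Glycan array binding is given as a within-array Z-score, which can be read as non-binding when negative. The arrays, 3228 of them, came from the Consortium for Functional Glycomics database and were retained only where the protein sequence was available. Z-scores were averaged across arrays of the same protein sequence at different concentrations or buffers and across linkers.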

[2] = target: Fuc(a1-2)[GalNAc(a1-3)]Gal(b1-4)GlcNAc
How it was run: as §1

[3] = target: Fuc(a1-2)[GalNAc(a1-3)]Gal(b1-4)GlcNAc(b1-2)Man(a1-3)[Fuc(a1-2)[GalNAc(a1-3)]Gal(b1-4)GlcNAc(b1-2)Man(a1-6)]Man(b1-4)GlcNAc(b1-4)GlcNAc
How it was run: as §1

[4] = target: Fuc(a1-2)[GalNAc(a1-3)]Gal(b1-4)GlcNAc(b1-2)Man(a1-3)[Fuc(a1-2)[GalNAc(a1-3)]Gal(b1-4)GlcNAc(b1-2)Man(a1-6)]Man(b1-4)GlcNAc(b1-4)[Fuc(a1-6)]GlcNAc
How it was run: as §1

[5] = target: Fuc(a1-2)[GalNAc(a1-3)]Gal(b1-4)GlcNAc(b1-3)Gal(b1-4)GlcNAc
How it was run: as §1

[6] = target: Fuc(a1-2)[GalNAc(a1-3)]Gal(b1-4)GlcNAc(b1-3)Gal(b1-4)GlcNAc(b1-3)Gal(b1-4)GlcNAc
How it was run: as §1

[7] = target: Fuc(a1-2)[GalNAc(a1-3)]Gal(b1-4)GlcNAc(b1-3)GalNAc
How it was run: as §1

[8] = target: Fuc(a1-2)[GalNAc(a1-3)]Gal(b1-4)[Fuc(a1-3)]GlcNAc
How it was run: as §1

[9] = target: Fuc(a1-2)[GalNAc(a1-3)]Gal(b1-4)[Fuc(a1-3)]GlcNAc(b1-3)GalNAc
How it was run: as §1

[10] = target: Fuc(a1-2)[GalNAc(a1-4)]Gal(b1-4)GlcNAc
How it was run: as §1

[11] = target: Fuc(a1-2)[GalNAc(b1-3)]Gal
How it was run: as §1

Fuc(a1-3)GlcNAc = target: Fuc(a1-3)GlcNAc
How it was run: as §1

[12] = target: Fuc(a1-3)[Gal(b1-4)]Glc6S
How it was run: as §1

[13] = target: Fuc(a1-3)[Gal(b1-4)]GlcNAc
How it was run: as §1

[14] = target: Fuc(a1-3)[Gal(b1-4)]GlcNAc(b1-2)Man(a1-3)[Fuc(a1-3)[Gal(b1-4)]GlcNAc(b1-2)Man(a1-6)]Man(b1-4)GlcNAc(b1-4)GlcNAc
How it was run: as §1

[15] = target: Fuc(a1-3)[Gal(b1-4)]GlcNAc(b1-2)Man(a1-3)[Fuc(a1-3)[Gal(b1-4)]GlcNAc(b1-2)Man(a1-6)]Man(b1-4)GlcNAc(b1-4)[Fuc(a1-6)]GlcNAc
How it was run: as §1

[16] = target: Fuc(a1-3)[Gal(b1-4)]GlcNAc(b1-3)Gal(b1-3)[Fuc(a1-4)]GlcNAc
How it was run: as §1

[17] = target: Fuc(a1-3)[Gal(b1-4)]GlcNAc(b1-3)GalNAc
How it was run: as §1

[18] = target: Fuc(a1-3)[Gal(b1-4)]GlcNAc(b1-4)Gal(b1-4)[Fuc(a1-3)]GlcNAc
How it was run: as §1

[19] = target: Fuc(a1-3)[Gal(b1-4)]GlcNAc(b1-4)Gal(b1-4)[Fuc(a1-3)]GlcNAc(b1-4)Gal(b1-4)[Fuc(a1-3)]GlcNAc
How it was run: as §1

[20] = target: Fuc(a1-3)[Gal(b1-4)]GlcNAc(b1-6)GalNAc
How it was run: as §1

[21] = target: Fuc(a1-3)[Gal(b1-4)]GlcNAc(b1-6)[Gal(b1-3)GlcNAc(b1-3)]Gal(b1-4)Glc
How it was run: as §1

[22] = target: Fuc(a1-3)[Gal(b1-4)]GlcNAc(b1-6)[Neu5Ac(a2-3)Gal(b1-3)]GalNAc
How it was run: as §1

[23] = target: Fuc(a1-3)[Gal(b1-4)]GlcNAc6S
How it was run: as §1

[24] = target: Fuc(a1-3)[Gal3S(b1-4)]GlcNAc
How it was run: as §1

[25] = target: Fuc(a1-3)[Gal3S(b1-4)]GlcNAc6S
How it was run: as §1

[26] = target: Fuc(a1-3)[GalNAc(b1-4)]GlcNAc
How it was run: as §1

Fuc(a1-4)GlcNAc = target: Fuc(a1-4)GlcNAc
How it was run: as §1

Fuc(b1-3)GlcNAc = target: Fuc(b1-3)GlcNAc
How it was run: as §1

Gal(a1-2)Gal = target: Gal(a1-2)Gal
How it was run: as §1

Gal(a1-3)Gal = target: Gal(a1-3)Gal
How it was run: as §1

Gal(a1-3)Gal(b1-3)GlcNAc = target: Gal(a1-3)Gal(b1-3)GlcNAc
How it was run: as §1

[27] = target: Gal(a1-3)Gal(b1-3)GlcNAc(b1-2)Man(a1-3)[Gal(a1-3)Gal(b1-3)GlcNAc(b1-2)Man(a1-6)]Man(b1-4)GlcNAc(b1-4)GlcNAc
How it was run: as §1

[28] = target: Gal(a1-3)Gal(b1-3)GlcNAc(b1-3)GalNAc
How it was run: as §1

[29] = target: Gal(a1-3)Gal(b1-3)[Fuc(a1-4)]GlcNAc(b1-2)Man(a1-3)[Gal(a1-3)Gal(b1-3)[Fuc(a1-4)]GlcNAc(b1-2)Man(a1-6)]Man(b1-4)GlcNAc(b1-4)GlcNAc
How it was run: as §1

Gal(a1-3)Gal(b1-4)Glc = target: Gal(a1-3)Gal(b1-4)Glc
How it was run: as §1

Gal(a1-3)Gal(b1-4)GlcNAc = target: Gal(a1-3)Gal(b1-4)GlcNAc
How it was run: as §1

[30] = target: Gal(a1-3)Gal(b1-4)GlcNAc(b1-3)GalNAc
How it was run: as §1

[31] = target: Gal(a1-3)Gal(b1-4)[Fuc(a1-3)]GlcNAc
How it was run: as §1

[32] = target: Gal(a1-3)Gal(b1-4)[Fuc(a1-3)]GlcNAc(b1-2)Man(a1-3)[Gal(a1-3)Gal(b1-4)[Fuc(a1-3)]GlcNAc(b1-2)Man(a1-6)]Man(b1-4)GlcNAc(b1-4)GlcNAc
How it was run: as §1

Gal(a1-3)GalNAc = target: Gal(a1-3)GalNAc
How it was run: as §1

[33] = target: Gal(a1-3)[Gal(a1-4)]Gal(b1-4)GlcNAc
How it was run: as §1

[34] = target: Gal(a1-4)Gal(b1-3)GlcNAc(b1-2)Man(a1-3)[Gal(a1-4)Gal(b1-3)GlcNAc(b1-2)Man(a1-6)]Man(b1-4)GlcNAc(b1-4)GlcNAc
How it was run: as §1

Gal(a1-4)Gal(b1-4)Glc = target: Gal(a1-4)Gal(b1-4)Glc
How it was run: as §1

Gal(a1-4)Gal(b1-4)GlcNAc = target: Gal(a1-4)Gal(b1-4)GlcNAc
How it was run: as §1

B1: Protectin (Homo sapiens), P13987 (protein)
chain: MGIQGGSVLFGLLLVLAVFCHSGHSLQCYNCPNPTADCKTAVNCSSDFDACLITKAGLQVYNKCWKFEHCNFNDVTTRLRENELTYYCCKKDLCNFNEQLENGGTSLSEKTVLLLVTPFLAAAWSLHP
glycan array binding signal (z-score) [1]: -0.168
glycan array binding signal (z-score) [2]: -0.791
glycan array binding signal (z-score) [3]: -0.073
glycan array binding signal (z-score) [4]: -0.349
glycan array binding signal (z-score) [5]: -0.559
glycan array binding signal (z-score) [6]: 0.045
glycan array binding signal (z-score) [7]: -0.605
glycan array binding signal (z-score) [8]: 1.38
glycan array binding signal (z-score) [9]: 0.597
glycan array binding signal (z-score) [10]: -0.684
glycan array binding signal (z-score) [11]: 0.907
glycan array binding signal (z-score) (Fuc(a1-3)GlcNAc): -0.062
glycan array binding signal (z-score) [12]: 0.245
glycan array binding signal (z-score) [13]: 0.55
glycan array binding signal (z-score) [14]: -1.09
glycan array binding signal (z-score) [15]: 1.27
glycan array binding signal (z-score) [16]: 0.128
glycan array binding signal (z-score) [17]: 1.44
glycan array binding signal (z-score) [18]: 0.549
glycan array binding signal (z-score) [19]: -1.75
glycan array binding signal (z-score) [20]: 2.63
glycan array binding signal (z-score) [21]: -0.354
glycan array binding signal (z-score) [22]: 2.01
glycan array binding signal (z-score) [23]: -0.455
glycan array binding signal (z-score) [24]: 1.22
glycan array binding signal (z-score) [25]: 0.703
glycan array binding signal (z-score) [26]: 0.825
glycan array binding signal (z-score) (Fuc(a1-4)GlcNAc): 1.02
glycan array binding signal (z-score) (Fuc(b1-3)GlcNAc): 0.309
glycan array binding signal (z-score) (Gal(a1-2)Gal): -0.934
glycan array binding signal (z-score) (Gal(a1-3)Gal): -0.696
glycan array binding signal (z-score) (Gal(a1-3)Gal(b1-3)GlcNAc): -1.28
glycan array binding signal (z-score) [27]: -0.73
glycan array binding signal (z-score) [28]: 1.36
glycan array binding signal (z-score) [29]: 0.748
glycan array binding signal (z-score) (Gal(a1-3)Gal(b1-4)Glc): -0.308
glycan array binding signal (z-score) (Gal(a1-3)Gal(b1-4)GlcNAc): 1.53
glycan array binding signal (z-score) [30]: 0.583
glycan array binding signal (z-score) [31]: 2.41
glycan array binding signal (z-score) [32]: 1.03
glycan array binding signal (z-score) (Gal(a1-3)GalNAc): -1.09
glycan array binding signal (z-score) [33]: -0.495
glycan array binding signal (z-score) [34]: 0.86
glycan array binding signal (z-score) (Gal(a1-4)Gal(b1-4)Glc): -1.73
glycan array binding signal (z-score) (Gal(a1-4)Gal(b1-4)GlcNAc): -0.039
